Consider one substance from patent US6365734B1, “Cucurbituril derivatives, their preparation methods and uses” (Pohang University of Science and Technology Foundation, priority 1999, dated 2002).

Some values come without a unit; they compare only within their column.

A short description of the series: Organic dye removal from water, UV absorption of filtrate. How it is done: 30 mg of organic dye, Direct Red 5B (commercially available from Ciba-Geigy Co.) was dissolved in 150 ml of water to prepare an organic dye solution. To half the organic dye solution, 150 mg of cucurbit[7]uril was added and stirred for 30 minutes.
The precipitate was filtered, and UV absorption spectra were measured at λmax=510 nm on the filtrate and the remaining half of the organic dye solution which was not treated with the cucurbut[7]uril.
R=UV absorption intensity of the dye solution treated with cucurbit[7]uril ×100/UV absorption intensity of the dye solution before the treatment with cucurbit[7]uril.
The following dyes were used: Reactive Blue HE-G (produced by Kyung-In Co.), Direct Solophenyl Violet 4BL (produced by Ciba-Geigy Co.), Reactive Navy Blue HE-R 150 (produced by Kyung-In Co.), Disperse Yellow E-3 (produced by LG Co.), Disperse T/Q Blue S-GL (produced by LG Co.) and Orange TGL (produced by Ciba-Geigy Co.).

cucurbit[7]uril: the “Absorption intensity after treatment” value is reported as 2.37×10^−2 (Direct Red 5B, λmax 510 nm, 1.43 before treatment); 3.93 × 10^−2 (Reactive Blue HE-G, λmax 626 nm, 1.13 before treatment); 3.77 × 10^−3 (Reactive Blue HE-G, λmax 662 nm, 1.18 before treatment).
